Reference: BindingDB's records for PubMed 10773045 (Wake Forest University, 2000)
“And” between values parts separate entries of the source, which are not always exact repeats. Equal entries are not always repeated.

The chains behind the UniProt entries cited, without tags or fusion partners.
UniProt P23977, whole entry: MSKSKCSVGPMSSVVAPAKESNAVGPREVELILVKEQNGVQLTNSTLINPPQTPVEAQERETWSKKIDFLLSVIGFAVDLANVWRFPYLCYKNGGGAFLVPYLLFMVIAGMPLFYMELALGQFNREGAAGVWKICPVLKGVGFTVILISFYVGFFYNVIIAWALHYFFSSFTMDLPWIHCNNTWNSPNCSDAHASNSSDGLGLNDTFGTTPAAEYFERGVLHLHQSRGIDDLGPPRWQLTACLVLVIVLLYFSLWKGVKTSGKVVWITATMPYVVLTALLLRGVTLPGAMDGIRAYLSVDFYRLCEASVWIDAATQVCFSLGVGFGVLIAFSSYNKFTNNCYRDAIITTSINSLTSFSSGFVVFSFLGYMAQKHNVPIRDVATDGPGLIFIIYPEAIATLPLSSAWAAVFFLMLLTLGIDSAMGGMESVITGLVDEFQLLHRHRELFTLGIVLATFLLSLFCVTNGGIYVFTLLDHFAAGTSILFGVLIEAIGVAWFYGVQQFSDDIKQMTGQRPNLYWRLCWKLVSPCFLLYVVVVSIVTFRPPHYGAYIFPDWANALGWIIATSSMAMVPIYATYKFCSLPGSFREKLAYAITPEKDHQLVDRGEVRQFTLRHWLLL

Molecular target: Sodium-dependent dopamine transporter (Rattus norvegicus, UniProt P23977)

CNCCCC12CCC(c3ccccc31)c1ccccc12 [Ludiomil]
Ki: 1210 nM and > 10000 nM and 1190 nM
